{"source": "patent EP2711007A1", "about": "“4-Aminopyrazolo[3,4-d]pyrimidine for use in treating or preventing primary and metastatic breast and prostate cancer” (Institut Univ. de Ciència i Tecnologia, S.A., priority 2012, dated 2014)", "key": {"[1]": {"test_system": "MCF-7 breast cancer cell line", "test": "Tetrazolium dye proliferation (WST-1) assay, MCF-7", "type": "cell-based", "parameters": "concentration or dose not given beside the values", "conditions": "Gemcitabine set to 0, negative = less inhibition than Gemcitabine, 5 days incubation", "protocol": "(§1) Determination of the ability of compound of formula (I) and combinations between compound of formula (I) and certain therapeutic compounds described herein to inhibit the proliferation of target cells was assayed in vitro against breast and prostate tumour cells. The antiproliferative activity was measured through the commercial WST-1 proliferation measurement reagent in a two-step screening procedure: […] MCF-7 and LNCaP cells were purchased from ATCC. PNT1A cells were purchased from ECACC. The cells were grown in a subconfluent condition to maintain a logarithmic growth phase. The cells were dislodged for passage using trypsin-EDTA. The proliferation of the cell lines was evaluated by using the commercial WST-1 proliferation measurement reagent. Cells from exponentially growing cultures were plated on the 96 well plates at the appropriate seeding density in the optimal medium to give logarithmic growth over the course of the assay. […] Following incubation the absorbance at a wavelength of 450nm was measured from each well using a multilabel counter. The absorbance at wavelength 450nm correlates linearly to number of viable cells in the well. The means and standard deviations for parallel samples were calculated and plotted as a graph."}, "[2]": {"test_system": "LNCaP prostate cancer cell line", "test": "Tetrazolium dye proliferation (WST-1) assay, LNCaP", "type": "cell-based", "conditions": "Gemcitabine set to 0, negative = less inhibition than Gemcitabine, 5 days incubation", "protocol": "as §1"}}, "note": "At least one read-out could not be matched to a standard name with certainty.", "data": [{"smiles": "CCSC1(O)N=CN=C2C1=NCN2[C@@H]1O[C@H](CO)[C@@H](O)[C@H]1O", "note": "(some centres unmarked) [Compound H, 6-(Ethylthio)inosine]", "values": [{"measurement": "proliferation inhibitory effect compared with Gemcitabine", "setting": "[1]", "result": "-45.5±10.5", "unit": "%"}, {"measurement": "proliferation inhibitory effect compared with Gemcitabine", "setting": "[2]", "result": "-342.7±41.7", "unit": "%"}]}]}
